Results published in doi:10.1101/2020.01.08.898304 (bioRxiv, 2020).
Where two headings read alike, the source gives them in different places. No constants are given. Whether binding was seen depends on the method and setting. For some of these results: In cells and extracts the contact can be indirect. Some results given as binding are weak or reduced against the parent protein; the word gives no strength. Where a sequence is shown, tags or fusion partners need not be part of it.

Amino acid sequences for entries named in this document (tags omitted).
UniProt P36873: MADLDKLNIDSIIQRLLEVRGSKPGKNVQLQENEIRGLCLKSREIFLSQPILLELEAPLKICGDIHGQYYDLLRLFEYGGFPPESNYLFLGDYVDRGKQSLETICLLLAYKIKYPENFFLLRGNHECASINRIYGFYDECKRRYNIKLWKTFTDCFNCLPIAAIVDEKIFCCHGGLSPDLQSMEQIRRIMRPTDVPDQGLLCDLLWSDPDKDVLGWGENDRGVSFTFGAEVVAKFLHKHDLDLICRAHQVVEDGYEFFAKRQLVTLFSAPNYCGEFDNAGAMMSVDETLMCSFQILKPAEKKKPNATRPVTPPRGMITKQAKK

Legend:
MBP-Jacob-45-532 = biological target: T1, MBP-Jacob-45-532 (UniProt Q9EPI6); assay: pull-down
T1 sequence: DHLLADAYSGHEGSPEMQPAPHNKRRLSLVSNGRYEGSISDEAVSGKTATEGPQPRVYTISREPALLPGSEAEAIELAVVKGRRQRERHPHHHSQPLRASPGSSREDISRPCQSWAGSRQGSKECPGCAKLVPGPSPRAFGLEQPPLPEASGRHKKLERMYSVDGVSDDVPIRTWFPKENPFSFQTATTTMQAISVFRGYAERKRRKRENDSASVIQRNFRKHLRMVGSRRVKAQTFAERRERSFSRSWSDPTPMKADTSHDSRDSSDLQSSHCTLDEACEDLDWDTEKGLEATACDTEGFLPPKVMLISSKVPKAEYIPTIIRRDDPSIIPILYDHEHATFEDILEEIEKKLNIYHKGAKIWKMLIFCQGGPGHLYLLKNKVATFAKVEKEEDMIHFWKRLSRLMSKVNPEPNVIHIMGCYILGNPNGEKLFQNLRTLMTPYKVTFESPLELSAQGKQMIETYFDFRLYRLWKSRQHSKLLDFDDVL

GST-LMO4 [1] = biological target: T2, GST-LMO4 (UniProt P61968); assay: pull-down
T2 sequence: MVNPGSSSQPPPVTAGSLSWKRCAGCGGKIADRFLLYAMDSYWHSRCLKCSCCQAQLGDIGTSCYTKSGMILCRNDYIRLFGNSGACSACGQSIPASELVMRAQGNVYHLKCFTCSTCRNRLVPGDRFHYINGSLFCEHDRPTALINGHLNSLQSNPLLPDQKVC

GST-LMO4 [2] = biological target: T2, GST-LMO4; assay: pull-down; remark: listed apart in the source
GST-LMO4 [3] = biological target: T2, GST-LMO4; assay: pull-down; remark: listed apart in the source
Jacob-GFP [4] = biological target: T3, Jacob-GFP (UniProt Q9EPI6); assay: FRET or BRET
T3 sequence: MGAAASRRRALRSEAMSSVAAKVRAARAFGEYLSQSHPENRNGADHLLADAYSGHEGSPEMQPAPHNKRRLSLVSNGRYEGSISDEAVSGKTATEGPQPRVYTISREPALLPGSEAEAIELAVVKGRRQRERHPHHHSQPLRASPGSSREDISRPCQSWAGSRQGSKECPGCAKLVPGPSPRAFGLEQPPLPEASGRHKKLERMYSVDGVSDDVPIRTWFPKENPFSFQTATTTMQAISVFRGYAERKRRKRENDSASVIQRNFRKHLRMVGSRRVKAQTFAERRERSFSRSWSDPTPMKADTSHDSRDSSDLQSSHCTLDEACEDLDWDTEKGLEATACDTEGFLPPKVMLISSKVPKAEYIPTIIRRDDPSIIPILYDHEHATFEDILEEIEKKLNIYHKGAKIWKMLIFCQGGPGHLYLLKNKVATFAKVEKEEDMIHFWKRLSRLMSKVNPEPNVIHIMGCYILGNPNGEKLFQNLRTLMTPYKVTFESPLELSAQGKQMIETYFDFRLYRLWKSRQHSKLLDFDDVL

Jacob-213-246-GFP = biological target: T4, Jacob-213-246-GFP (UniProt Q9EPI6); assay: co-IP
T4 sequence: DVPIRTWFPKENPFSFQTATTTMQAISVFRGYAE

Jacob-173-246-GFP = biological target: T5, Jacob-173-246-GFP (UniProt Q9EPI6); assay: co-IP
T5 sequence: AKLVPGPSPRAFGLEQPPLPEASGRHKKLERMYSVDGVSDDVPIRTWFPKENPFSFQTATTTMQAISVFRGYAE

Jacob-310-532-GFP = biological target: T6, Jacob-310-532-GFP (UniProt Q9EPI6); assay: co-IP
T6 sequence: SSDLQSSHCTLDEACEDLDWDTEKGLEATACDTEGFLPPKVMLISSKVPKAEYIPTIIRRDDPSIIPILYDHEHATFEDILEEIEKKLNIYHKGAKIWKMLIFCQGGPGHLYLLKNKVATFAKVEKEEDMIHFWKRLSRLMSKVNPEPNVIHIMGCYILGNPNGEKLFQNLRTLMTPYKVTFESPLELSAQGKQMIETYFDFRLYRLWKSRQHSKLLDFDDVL

Jacob-GFP [5] = biological target: T3, Jacob-GFP; assay: co-IP
LMO4-GFP = biological target: T7, LMO4-GFP (UniProt P61968); assay: FRET or BRET
T7 sequence: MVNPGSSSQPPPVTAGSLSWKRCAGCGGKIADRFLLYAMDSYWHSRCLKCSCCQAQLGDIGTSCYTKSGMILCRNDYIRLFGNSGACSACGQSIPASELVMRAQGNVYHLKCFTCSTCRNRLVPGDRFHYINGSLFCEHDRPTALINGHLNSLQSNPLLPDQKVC

Jacob-262-532-GFP = biological target: T8, Jacob-262-532-GFP (UniProt Q9EPI6); assay: FRET or BRET
T8 sequence: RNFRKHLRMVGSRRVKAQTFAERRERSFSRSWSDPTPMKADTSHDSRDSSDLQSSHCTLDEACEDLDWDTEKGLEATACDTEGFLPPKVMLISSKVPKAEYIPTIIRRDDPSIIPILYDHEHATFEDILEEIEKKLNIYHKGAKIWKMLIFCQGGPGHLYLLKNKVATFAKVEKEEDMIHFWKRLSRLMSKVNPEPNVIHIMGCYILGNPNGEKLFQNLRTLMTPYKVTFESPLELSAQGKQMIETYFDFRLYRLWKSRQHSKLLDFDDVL

Jacob-1-228-GFP = biological target: T9, Jacob-1-228-GFP (UniProt Q9EPI6); assay: FRET or BRET
T9 sequence: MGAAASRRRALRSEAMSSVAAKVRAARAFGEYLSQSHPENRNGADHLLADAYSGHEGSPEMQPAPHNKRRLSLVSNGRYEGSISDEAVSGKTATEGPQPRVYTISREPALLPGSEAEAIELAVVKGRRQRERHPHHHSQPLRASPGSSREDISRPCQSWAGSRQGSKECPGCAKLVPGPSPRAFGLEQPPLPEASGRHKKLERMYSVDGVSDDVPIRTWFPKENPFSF

Jacob-GFP [6] = biological target: T3, Jacob-GFP; assay: FRET or BRET; remark: listed apart in the source
Jacob-GFP [7] = biological target: T3, Jacob-GFP; assay: FRET or BRET; remark: listed apart in the source
GST-LMO4 [8] = biological target: T2, GST-LMO4; assay: pull-down; remark: listed apart in the source
[9] = biological target: T10, N-terminus of Jacob (117-172 aa), pull-down fragment (UniProt Q9EPI6); assay: pull-down
T10 sequence: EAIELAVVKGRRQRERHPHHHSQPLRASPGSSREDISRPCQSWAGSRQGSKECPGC

MBP-Jacob-262-532 = biological target: T11, MBP-Jacob-262-532 (UniProt Q9EPI6); assay: pull-down
T11 sequence: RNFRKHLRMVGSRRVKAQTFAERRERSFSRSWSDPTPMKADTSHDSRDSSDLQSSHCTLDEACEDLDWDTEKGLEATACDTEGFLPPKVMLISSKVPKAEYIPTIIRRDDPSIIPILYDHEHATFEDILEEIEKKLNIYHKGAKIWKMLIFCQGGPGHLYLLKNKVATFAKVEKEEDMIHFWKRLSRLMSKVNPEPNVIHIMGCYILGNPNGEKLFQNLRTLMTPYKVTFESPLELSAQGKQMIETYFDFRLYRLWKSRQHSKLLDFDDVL

CREB-GFP = CREB-GFP (UniProt P15337); assay: FRET or BRET

His-PP1γ (from UniProt P36873 1-323) (enzyme)
binding (MBP-Jacob-45-532): binds

His-SUMO-CREB (from UniProt P15337-1 1-341)
binding (MBP-Jacob-45-532): binds | binding (GST-LMO4 [1]): binds | binding (GST-LMO4 [2]): binds | binding (GST-LMO4 [3]): binds

CREB-RLuc (from UniProt P15337-1 1-341)
binding (Jacob-GFP [4]): binds

mCherry-PP1γ (from UniProt P36873 1-323) (enzyme)
binding (Jacob-213-246-GFP): binds | binding (Jacob-173-246-GFP): binds | binding (Jacob-310-532-GFP): binds

His-SUMO-1-165-CREB (from UniProt P15337-1 1-165) (domain or fragment)
binding (GST-LMO4 [1]): no binding

Endogenous CREB (HEK293T) (from UniProt P16220 1-327)
binding (Jacob-GFP [5]): binds

CREB-1-165-tagRFP (from UniProt P15337-1 1-165) (domain or fragment)
binding (Jacob-GFP [4]): no binding

B1: CREB-166-341-tagRFP (domain or fragment, UniProt P15337-1 166-341)
chain: TTVTVPTPIYQTSSGQYIAITQGGAIQLANNGTDGVQGLQTLTMTNAAATQPGTTILQYAQTTDGQQILVPSNQVVVQAASGDVQTYQIRTAPTSTIAPGVVMASSPALPTQPAEEAARKREVRLMKNREAARECRRKKKEYVKCLENRVAVLENQNKTLIEELKALKDLYCHKSD
binding (LMO4-GFP): binds | binding (Jacob-262-532-GFP): binds | binding (Jacob-1-228-GFP): binds | binding (Jacob-GFP [6]): binds

B2: GST-LMO4 (natural protein, UniProt P61968 1-165, looked up)
chain: MVNPGSSSQPPPVTAGSLSWKRCAGCGGKIADRFLLYAMDSYWHSRCLKCSCCQAQLGDIGTSCYTKSGMILCRNDYIRLFGNSGACSACGQSIPASELVMRAQGNVYHLKCFTCSTCRNRLVPGDRFHYINGSLFCEHDRPTALINGHLNSLQSNPLLPDQKVC
binding (Jacob-GFP [7]): binds | binding (Jacob-GFP [6]): binds

REAARECRRKKKEYVKCLENRVAVLENQNKTLIEELKALKDLYCHKSD (domain or fragment, UniProt P15337-1 294-341) [His-SUMO-CREB-294-341]
binding (GST-LMO4 [8]): no binding | binding [9]: binds | binding (MBP-Jacob-262-532): binds

B3: His-SUMO-166-341-CREB (domain or fragment, UniProt P15337-1 166-341)
chain: TTVTVPTPIYQTSSGQYIAITQGGAIQLANNGTDGVQGLQTLTMTNAAATQPGTTILQYAQTTDGQQILVPSNQVVVQAASGDVQTYQIRTAPTSTIAPGVVMASSPALPTQPAEEAARKREVRLMKNREAARECRRKKKEYVKCLENRVAVLENQNKTLIEELKALKDLYCHKSD
binding (GST-LMO4 [8]): binds

B4: LIM2-81-165-tagRFP (domain or fragment, UniProt P61968 81-165)
chain: FGNSGACSACGQSIPASELVMRAQGNVYHLKCFTCSTCRNRLVPGDRFHYINGSLFCEHDRPTALINGHLNSLQSNPLLPDQKVC
binding (CREB-GFP): no binding

B5: His-SUMO-CREB-1-88 (domain or fragment, UniProt P15337-1 1-88)
chain: MTMDSGADNQQSGDAAVTEAESQQMTVQAQPQIATLAQVSMPAAHATSSAPTVTLVQLPNGQTVQVHGVIQAAQPSVIQSPQVQTVQS
binding [9]: no binding

B6: His-SUMO-CREB-166-293 (domain or fragment, UniProt P15337-1 166-293)
chain: TTVTVPTPIYQTSSGQYIAITQGGAIQLANNGTDGVQGLQTLTMTNAAATQPGTTILQYAQTTDGQQILVPSNQVVVQAASGDVQTYQIRTAPTSTIAPGVVMASSPALPTQPAEEAARKREVRLMKN
binding [9]: no binding
